Experimental data as given in the supplement of paper PMC12282887.
These are raw signals, not scaled to a control.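 Maximum concentrations were near the MIC for antimicrobials, 500 µM for most other compounds, and as high as 1 mM for known inducer-like compounds. Deletion strains began with a tenfold smaller inoculum, and wells with growth under 10% of the overall median counted as non-growing.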

System: Escherichia coli BW25113
Experiment: growth (OD600 area under curve, 8 h) (OD600 x h); higher = more growth
Protocol: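 E. coli BW25113 reporter strains (wild type, ΔmarA, ΔsoxS, Δrob, each carrying one of 8 lux reporter plasmids) were grown in 40 µl LB in 384-well plates at 37°C, 800 rpm, with each compound at 4 two-fold concentrations, in biological duplicates. Growth is the baseline-corrected OD600 area under the curve over 8 h (0-8 h WT, 1-9 h deletion strains).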

CNC(C)C1CCC(N)C(OC2C(N)CC(N)C(OC3OCC(C)(O)C(NC)C3O)C2O)O1 (stereo unspecified) [Gentamicin]
growth
Settings | reporter plasmid: EVC | reporter plasmid: acrABp | reporter plasmid: marRABp | reporter plasmid: micFp | reporter plasmid: ompFp | reporter plasmid: robp | reporter plasmid: soxSp | reporter plasmid: tolCp
0.13 µg/ml, genetic background: wild type | 3.02 | 3.39 | 3.442 | 3.04 | 3.13 | 3.32 | 3 | 3.08
0.13 µg/ml, genetic background: ΔmarA | 3.4 | 4.29 | 3.83 | 3.49 | 3.59 | 4.07 | 3.25 | 3.22
0.13 µg/ml, genetic background: Δrob | 3.12 | 2.92 | 3.43 | 3.1 | 2.81 | 2.76 | 3.02 | 3.2
0.13 µg/ml, genetic background: ΔsoxS | 3.28 | 3.34 | 3.29 | 2.9 | 3.22 | 3.44 | 3.26 | 3.15
0.26 µg/ml, genetic background: wild type | 2.723 | 3.1 | 3.19 | 2.44 | 2.67 | 2.99 | 2.45 | 2.96
0.26 µg/ml, genetic background: ΔmarA | 2.97 | 4.07 | 3.57 | 3.09 | 3.08 | 3.79 | 2.8 | 2.93
0.26 µg/ml, genetic background: Δrob | 2.7 | 2.65 | 3.05 | 2.85 | 2.44 | 2.57 | 2.78 | 2.96
0.26 µg/ml, genetic background: ΔsoxS | 2.96 | 3.08 | 2.92 | 2.53 | 2.99 | 3.07 | 3 | 2.97
0.52 µg/ml, genetic background: wild type | 1.64 | 1.55 | 2.35 | 0.859 | 0.188 | 1.4 | 1.67 | 2.58
0.52 µg/ml, genetic background: ΔmarA | 1.71 | 2.65 | 2.54 | 2.44 | 2.04 | 2.46 | 1.51 | 2.17
0.52 µg/ml, genetic background: Δrob | 2.02 | 1.44 | 1.74 | 1.81 | 0.592 | 0.873 | 1.49 | 2.14
0.52 µg/ml, genetic background: ΔsoxS | 2.42 | 1.9 | 1.15 | 1.66 | 1.34 | 2.73 | 2.12 | 1.54
1 µg/ml, genetic background: wild type | -0.298 | 0.0799 | 0.148 | 0.0634 | 0.075 | 0.113 | 0.1216 | 0.177
1 µg/ml, genetic background: ΔmarA | -0.0151 | 0.0108 | -0.0236 | -0.0273 | -0.0567 | -0.00984 | -0.0191 | -0.0744
1 µg/ml, genetic background: Δrob | -0.0875 | -0.037 | -0.024 | -0.0935 | -0.0954 | -0.00174 | 0.0165 | -0.00111
1 µg/ml, genetic background: ΔsoxS | 0.0227 | -0.0541 | 0.0245 | 0.00125 | 0.0342 | 0.0147 | 0.044 | 0.0123

CC(C)Cc1ccc(C(C)C(=O)O)cc1 (stereo unspecified) [Ibuprofen]
growth
Settings | reporter plasmid: EVC | reporter plasmid: acrABp | reporter plasmid: marRABp | reporter plasmid: micFp | reporter plasmid: ompFp | reporter plasmid: robp | reporter plasmid: soxSp | reporter plasmid: tolCp
12.9 µg/ml, genetic background: wild type | 2.97 | 2.73 | 3.14 | 3.04 | 2.81 | 3.193 | 2.958 | 3.13
12.9 µg/ml, genetic background: ΔmarA | 3.55 | 4.22 | 3.7 | 3.37 | 3.46 | 3.88 | 2.99 | 2.93
12.9 µg/ml, genetic background: Δrob | 2.82 | 2.73 | 3.21 | 3.33 | 2.38 | 2.56 | 2.92 | 2.85
12.9 µg/ml, genetic background: ΔsoxS | 2.77 | 2.85 | 2.92 | 2.5 | 2.64 | 2.93 | 3.06 | 2.82
25.8 µg/ml, genetic background: wild type | 2.77 | 2.65 | 3.14 | 2.81 | 2.74 | 2.98 | 2.643 | 2.84
25.8 µg/ml, genetic background: ΔmarA | 3.33 | 4.05 | 3.3 | 3.15 | 2.9 | 2.86 | 2.82 | 2.9
25.8 µg/ml, genetic background: Δrob | 2.75 | 3.17 | 3.29 | 3.03 | 2.31 | 2.53 | 2.75 | 2.8
25.8 µg/ml, genetic background: ΔsoxS | 2.7 | 2.79 | 2.94 | 2.49 | 2.7 | 2.98 | 2.9 | 2.74
51.6 µg/ml, genetic background: wild type | 2.85 | 2.66 | 3.31 | 2.99 | 2.98 | 3.18 | 2.86 | 3.08
51.6 µg/ml, genetic background: ΔmarA | 3.63 | 4.41 | 4.03 | 3.42 | 3.44 | 4.04 | 3.25 | 3
51.6 µg/ml, genetic background: Δrob | 2.75 | 2.78 | 3.25 | 3.1 | 2.77 | 2.68 | 2.81 | 2.92
51.6 µg/ml, genetic background: ΔsoxS | 2.78 | 2.94 | 3.1 | 2.44 | 2.81 | 3.13 | 2.76 | 2.78
103.1 µg/ml, genetic background: wild type | 2.67 | 2.79 | 3.27 | 2.67 | 2.9 | 3.05 | 2.48 | 2.76
103.1 µg/ml, genetic background: ΔmarA | 3.48 | 3.79 | 3.35 | 3.14 | 2.97 | 4 | 3.007 | 3.02
103.1 µg/ml, genetic background: Δrob | 2.48 | 3.23 | 3.58 | 3.06 | 2.4 | 2.54 | 2.74 | 2.92
103.1 µg/ml, genetic background: ΔsoxS | 2.54 | 3.01 | 2.98 | 2.24 | 2.57 | 2.96 | 2.53 | 2.59
